According to PubChem BioAssay AID2685 (National Center for Advancing Translational Sciences (NCATS), 2010):
This is one part of the list. The main result of the screen is listed elsewhere. These columns were measured beside it and carry no call. Compounds called inactive in the main read-out are mostly missing here. The note in brackets gives the kind of curve behind each potency; many fits are weak.

Assay: qHTS Assay for Lipid Storage Modulators in Drosophila S3 Cells;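 on cell number change: cells counted by Cell Tracker Red CMTPX staining in the red channel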
Conditions: BODIPY lipid droplet fluorescence, 18-24 h; for cell number change: measured here: cell count max response, cells fed with added oleic acid
Method in brief: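 Drosophila S3 cells loaded with oleic acid (400 uM, as added) and compounds at several concentrations; lipid droplets imaged by 488-nm laser-scanning cytometry, 500–530 nm intensity and object ratio to cell channel. Percent activity normalized to 20 uM Triacsin C.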

[1] = measured here: lipid fluorescence (Fed channel) AC50, cells fed with added oleic acid
[2] = measured here: cell number channel AC50, cells fed with added oleic acid

CC(C)(C)n1cc(C(=O)c2ccc3ccccc3c2O)cn1
cell number change: 24.3% | AC50 [1]: 32.6 µM [rising, partial curve, poor fit]

Clc1ccccc1CN1CCN(c2ccccc2)CC1
cell number change: -11.5% | AC50 [1]: 6.51 µM [falling, single point]

C=CCn1c(O)c(C(C)=NCCC2=CCCCC2)c(=O)[nH]c1=O
cell number change: 38.4% | AC50 [2]: 20.6 µM [rising, single point]

O=C1CCN(C(=O)CCCn2c(=O)oc3ccccc32)CC1
cell number change: -12.4% | AC50 [1]: 0.146 µM [falling, full curve, poor fit]

Nc1c(Cl)cc([N+](=O)[O-])cc1Cl
cell number change: 38.7% | AC50 [2]: 8.2 µM [rising, partial curve, poor fit] | AC50 [1]: 10.3 µM [rising, partial curve]

Cc1cc(NC(=O)COC(=O)c2c(C)nn(Cc3ccccc3)c2C)no1
cell number change: -6.5% | AC50 [1]: 0.092 µM [rising, full curve, poor fit]

CCN1CCC2(CCNC2)C1 (configuration not stated)
cell number change: 19% | AC50 [1]: 29.1 µM [rising, single point]

O=C(COc1ccccc1)N1CCN(Cc2c[nH]c3ccccc23)CC1
cell number change: -16.9%

O=C(CNC(=O)c1ccc(Cl)cc1)Nc1ccc(Br)cc1C(=O)c1ccccc1
cell number change: -12% | AC50 [2]: 0.731 µM [rising, full curve]

O=C(c1ccc(Cl)cc1)C1CCCN(Cc2cccc3ncccc23)C1 (configuration not stated)
cell number change: -20.8% | AC50 [1]: 29.1 µM [falling, single point]

CC(C)(C)NC(=S)/N=C(\N)N[N+](=O)[O-]
cell number change: -41.1% | AC50 [2]: 29.1 µM [falling, single point]

CCCc1nc2ccccc2c(=O)n1-c1cccc(OC)c1
cell number change: 4.02% | AC50 [1]: 6.51 µM [rising, single point]

COC(=O)CC1(Cc2ccccc2)C(=O)NC(=O)NC1=O
cell number change: -21.6% | AC50 [1]: 23.1 µM [falling, partial curve]

CCCCC1(CCCC)C(=O)NC(=Nc2cccc(C)c2)NC1=O
cell number change: -63.2% | AC50 [2]: 25.9 µM [falling, partial curve] | AC50 [1]: 23.1 µM [falling, partial curve]

CCOc1ccc(-n2c(O)c(/C=C3\C=Nc4ccccc43)c(=O)[nH]c2=O)cc1
cell number change: 485% | AC50 [2]: 29.1 µM [rising, single point] | AC50 [1]: 18.4 µM [falling, partial curve]

O=C(CCN1CCCCC1)Nc1ccc(Br)cc1C(=O)c1ccccc1
cell number change: 25.4% | AC50 [1]: 23.1 µM [rising, single point]

COc1ccccc1N1CCN(Cc2ccc(Br)s2)CC1
AC50 [2]: 0.82 µM [falling, full curve] | AC50 [1]: 29.1 µM [rising, single point]

COC(=O)[C@]12OC[C@]34C([C@@H](O)[C@@H]1O)[C@]1(C)CC(=O)C(O)=C(C)[C@@H]1C[C@H]3OC(=O)[C@H](O)[C@@H]24 (some centres not stated)
cell number change: -50% | AC50 [2]: 0.231 µM [falling, full curve] | AC50 [1]: 2.59 µM [falling, full curve]

CC1(C)N(O)C2CCCCC2N1O (configuration not stated)
cell number change: 7.13% | AC50 [1]: 6.51 µM [rising, partial curve]

COC(=O)C1=C(c2ccc(-c3ccccc3)c(F)c2)C[C@@H]2CC[C@H]1N2C(=O)N1CCc2cc(OC)c(OC)cc2C1
cell number change: 2.52% | AC50 [1]: 0.13 µM [rising, full curve, poor fit]

CCCCn1c(O)c(C(C)=NCCN2CCCCC2)c(=O)[nH]c1=O
cell number change: 6.21% | AC50 [1]: 4.61 µM [falling, full curve, poor fit]

COc1ccc(CCN(C)Cc2ccc(F)cc2F)cc1OC
AC50 [2]: 1.46 µM [rising, partial curve]

Cc1[nH]c2ccccc2c1C(=O)CN1CC=C(c2ccccc2)CC1
cell number change: 15% | AC50 [1]: 9.2 µM [rising, single point]

O=P(OC1CCCCC1)(OC1CCCCC1)C(O)c1ccccc1 (configuration not stated)
AC50 [2]: 29.1 µM [rising, single point]

COc1cc(C)c(CN2CC=C(c3ccc(F)cc3)CC2)cc1C
cell number change: 1.76% | AC50 [1]: 10.3 µM [rising, partial curve, poor fit]

Cc1ccc2c(c1)CC1(CN2C)C(=O)NC(=O)N(c2ccc(C)c(C)c2)C1=O (configuration not stated)
cell number change: 0.511% | AC50 [1]: 6.51 µM [falling, single point]

Cn1c2ccccc2c2cnn(CC(=O)N3CCC4(CC3)OCCO4)c(=O)c21
cell number change: 10.3%

Cc1ccc2c(c1)C1CN(C)CCC1N2C(=O)/C(C#N)=C/c1ccc2c(c1)OCO2 (configuration not stated)
cell number change: -28% | AC50 [1]: 25.9 µM [falling, partial curve, poor fit]

N#C/C(N)=C(/N)C#N
cell number change: 3.16% | AC50 [1]: 0.0651 µM [rising, full curve]

Cn1c[n+](C)cc1C(O)c1ccccc1 (configuration not stated)
cell number change: 1.55% | AC50 [1]: 6.51 µM [rising, single point]

Cc1ccc2c(c1)C1CN(C)CCC1N2C(=O)c1ccc(Br)o1 (configuration not stated)
cell number change: 72.9% | AC50 [2]: 11.6 µM [rising, partial curve] | AC50 [1]: 0.058 µM [rising, full curve, poor fit]

CCOC(=O)c1c(C)n(Cc2ccc(F)cc2)c2ccc(O)cc12
cell number change: -2.69% | AC50 [1]: 0.00517 µM [falling, full curve, poor fit]

CC1CN(O)C2CCc3c(no[n+]3[O-])C12O (configuration not stated)
AC50 [2]: 0.517 µM [rising, single point]

COc1ccc(-n2c(/C=C/c3ccc4c(c3)OCO4)nc3ccccc3c2=O)cc1
cell number change: 38.2% | AC50 [2]: 2.06 µM [rising, partial curve] | AC50 [1]: 0.651 µM [rising, full curve]

CN(C)c1ccc(CN2CC=C(c3ccc(F)cc3)CC2)cc1
cell number change: 13.2% | AC50 [2]: 0.0326 µM [rising, full curve, poor fit] | AC50 [1]: 3.26 µM [falling, partial curve]

C=CCN1C(=O)NC(=O)/C(=C/c2ccc(OCC(=O)Nc3ccc(C)cc3)cc2)C1=O
cell number change: 24.4% | AC50 [1]: 8.2 µM [rising, partial curve, poor fit]

N#Cc1cc2c(nc1SCC(=O)Nc1ccc(Cl)cc1)C1CCN2CC1
cell number change: 5.39% | AC50 [2]: 0.326 µM [rising, full curve]

C=C1C(=O)O[C@@H]2C[C@@H](C)[C@H]3C=CC(=O)[C@]3(O)C[C@@H]12
cell number change: -34.6% | AC50 [2]: 1.03 µM [falling, full curve, poor fit]

Cc1cccc(CCNCc2cc3cccc(C)c3[nH]c2=O)c1
AC50 [2]: 2.31 µM [falling, partial curve] | AC50 [1]: 0.0092 µM [falling, full curve, poor fit]

O=c1[nH]c(=S)n(-c2ccccc2)c(O)c1C=NCCN1CCNCC1
AC50 [2]: 0.651 µM [falling, single point]

CCOC(=O)C(O)(c1ccc(N(CC)S(=O)(=O)c2ccc(C)cc2)cc1)C(F)(F)F (configuration not stated)
cell number change: -74.5% | AC50 [2]: 0.231 µM [falling, full curve] | AC50 [1]: 0.184 µM [falling, full curve]

COc1cccc(CNCCc2cccc(F)c2)c1OC
cell number change: 27.4% | AC50 [1]: 29.1 µM [rising, single point]

N#Cc1ccc(N2CCNCC2)c(F)c1
cell number change: 10.1% | AC50 [1]: 0.0517 µM [falling, full curve]

COP(=O)(C#Cc1ccccc1)C(O)c1ccc(Br)cc1 (configuration not stated)
cell number change: -0.0168% | AC50 [2]: 0.146 µM [rising, full curve, poor fit] | AC50 [1]: 7.31 µM [rising, partial curve]

c1cncc(CNC2CCCCC2)c1
cell number change: -20.9%

O=C1Nc2cc(C(=O)N3CCC4(CC3)OCCO4)ccc2S/C1=C\c1ccccc1
cell number change: -26.4% | AC50 [2]: 0.0058 µM [falling, full curve, poor fit] | AC50 [1]: 1.46 µM [falling, full curve, poor fit]

O=[N+]([O-])c1cc([As](=O)(O)O)ccc1O
cell number change: -19.6% | AC50 [1]: 10.3 µM [falling, partial curve]

CCCCSP1(=S)NCCCO1 (configuration not stated)
cell number change: -30.5% | AC50 [2]: 0.146 µM [falling, full curve, poor fit]

COc1ccc(-c2[nH]ncc2CNC(C)Cc2ccsc2)c(F)c1 (configuration not stated)
cell number change: 15.2% | AC50 [1]: 25.9 µM [rising, single point]

CCN1CC2(COC(=O)c3ccccc3N)CCC(OC)C34C5CC6C(OC)CC(O)(C5C6OC)C(O)(C(OC)C23)C14 (configuration not stated)
cell number change: -5.27% | AC50 [1]: 29.1 µM [rising, single point]

C=CCn1c(O)c(C(C)=NCCCN(C)C)c(=O)[nH]c1=O
cell number change: 10.3% | AC50 [1]: 6.51 µM [falling, single point]

CCCCCCN=C(C)c1c(O)n(Cc2ccccc2)c(=O)[nH]c1=O
cell number change: 17.8% | AC50 [2]: 2.06 µM [falling, partial curve, poor fit]

CNc1ccc2oc(C[C@H]3O[C@@]4(CC[C@H]3C)O[C@H]([C@H](C)C(=O)c3ccc[nH]3)[C@H](C)C[C@H]4C)nc2c1C(=O)O
cell number change: -72.6% | AC50 [2]: 0.259 µM [falling, full curve] | AC50 [1]: 0.231 µM [falling, full curve]

COc1ccc(C2=NCc3nnc(C)n3-c3ccc(Cl)cc32)cc1Cl
cell number change: -39% | AC50 [2]: 32.6 µM [falling, partial curve, poor fit]

CN1CCCN(C(=O)COc2ccc(F)cc2Cl)CC1
cell number change: 4.65% | AC50 [1]: 0.0058 µM [rising, full curve, poor fit]

CCC(=O)c1c(O)n(C2CCCCCC2)c(=O)[nH]c1=O
cell number change: -21.2% | AC50 [1]: 0.82 µM [falling, single point]

C=CCN1C(=O)/C(=C/c2cc(C)n(-c3ccccn3)c2C)C(=O)NC1=S
cell number change: -13.1%
